According to PubChem BioAssay AID328 (DTP/NCI, 2004):
The list is a part of this screen's results and no random one: it gathers tests that were run many times, whatever their T/C, doses with no T/C, and many T/C values between a quarter and a half above the control. Further doses and runs are listed elsewhere. T/C gives the treated animals as a percentage of the vehicle group. Some entries give survivors of the animals treated and no T/C: the source files T/C as zero there, which appears to mark a toxic dose or a test without result, not a measured value. Some survivor counts are full or nearly so, which does not show that the dose was tolerated: the source hardly ever lists a survival T/C far under the control, and the zero likely stands for such cases as well. Survivors were counted at the toxicity check, usually on the fifth day, unless a day is given; later deaths do not show. Schedule codes are those of the source, read here as Q, the interval in days (D) or hours (H), X, the number of doses. For survival time, the PubChem record calls one and a half times the control and up active, and a quarter to a half above the control has no call in these data; cut-offs in other NCI protocols can differ. Some T/C values carry the count of animals alive at the toxicity check (mostly the fifth day); where none is given, no animal had died by that day. Some entries hold several experiments; their values stand side by side, smallest first.

System: BDF1 mice, P388 leukemia ip, median survival T/C
Assay: NCI In Vivo Anticancer Drug Screen. Data for tumor model P388 Leukemia (intraperitoneal) in B6D2F1 (BDF1) mice
Settings: T/C endpoint: median survival time, higher T/C = longer survival
Outline: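 Steps: implant the tumour, treat one group with compound and another with vehicle, record survival, then divide treated by control.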

[1] = dose: 12.5 mg/kg/injection, schedule: Q01DX009 (ip), vehicle: saline
[2] = dose: 200.0 mg/kg/injection, schedule: Q01DX009 (ip), vehicle: saline with Tween-80
[3] = dose: 400.0 mg/kg/injection, schedule: Q01DX009 (ip), vehicle: saline with Tween-80
[4] = dose: 100.0 mg/kg/injection, schedule: Q01DX005 (ip), vehicle: saline with Tween-80
[5] = dose: 2.0 mg/kg/injection, schedule: Q01DX009 (ip), vehicle: saline with Tween-80
[6] = dose: 16.5 mg/kg/injection, schedule: Q04DX003 (ip), vehicle: saline with Tween-80
[7] = dose: 25.0 mg/kg/injection, schedule: Q01DX009 (ip), vehicle: saline with Tween-80
[8] = dose: 200.0 mg/kg/injection, schedule: Q04DX003 (ip), vehicle: Klucel (hydroxypropylcellulose) (HPC)
[9] = dose: 50.0 mg/kg/injection, schedule: Q01DX009 (ip), vehicle: saline
[10] = dose: 100.0 mg/kg/injection, schedule: Q01DX009 (ip), vehicle: saline
[11] = dose: 200.0 mg/kg/injection, schedule: Q01DX009 (ip), vehicle: saline
[12] = dose: 400.0 mg/kg/injection, schedule: Q01DX009 (ip), vehicle: saline
[13] = dose: 200.0 mg/kg/injection, schedule: Q04DX003 (ip), vehicle: saline

Structure (SMILES): CC1(CO)C(O)CCC2(C)C1CCC1CC3CC12CCC3(O)CO (stereo unspecified)
- T/C (dose: 37.5 mg/kg/injection, schedule: Q01DX009 (ip), vehicle: saline with Tween-80): 136 % of control

Structure (SMILES): NC(=O)C(Br)CBr (stereo unspecified)
- survivor count [1]: 6 of 6
- survivor count [2]: 0 of 6
- survivor count [3]: 0 of 6

Structure (SMILES): O=c1c2ccccc2nnn1Cc1ccco1
- survivor count [4]: 5 of 5

Structure (SMILES): CO[C@H]1C[C@H](O[C@H]2CC[C@]3(C=O)[C@H]4CC[C@]5(C)[C@@H](C6=CC(=O)OC6)CC[C@]5(O)[C@@H]4CC[C@]3(O)C2)O[C@H](C)[C@H]1O[C@@H]1O[C@H](CO)[C@@H](O)[C@H](O)[C@H]1O
- survivor count (dose: 2.0 mg/kg/injection, schedule: Q01DX009 (ip), vehicle: saline): 2 of 6
- survivor count (dose: 2.0 mg/kg/injection, schedule: Q01DX010 (ip), vehicle: saline): 2 of 6
- survivor count (dose: 4.0 mg/kg/injection, schedule: Q01DX010 (ip), vehicle: saline): 0 of 6

Structure (SMILES): Nc1nc(Cl)nc2c1ncn2C1OC(CO)C(O)C1O (stereo unspecified)
- T/C (dose: 25.0 mg/kg/injection, schedule: Q01DX010 (ip), vehicle: carboxymethylcellulose (CMC)): 142 % of control
- T/C (dose: 56.25 mg/kg/injection, schedule: Q01DX009 (ip), vehicle: saline): 141 % of control
- T/C (dose: 74.25 mg/kg/injection, schedule: Q01DX009 (ip), vehicle: saline): 136 % of control [5 of 6 alive]
- survivor count (dose: 200.0 mg/kg/injection, schedule: Q01DX010 (ip), vehicle: carboxymethylcellulose (CMC)): 4 of 6
- survivor count (dose: 225.0 mg/kg/injection, schedule: Q01DX009 (ip), vehicle: saline): 1 of 6
- survivor count (dose: 400.0 mg/kg/injection, schedule: Q01DX010 (ip), vehicle: carboxymethylcellulose (CMC)): 4 of 6

Structure (SMILES): Cc1nc(N)nc(N)c1-c1ccc(Cl)c(Cl)c1
- survivor count (dose: 1.3 mg/kg/injection, schedule: Q01DX009 (ip), vehicle: saline with Tween-80): 6 of 6
- T/C [5]: 140 % of control
- survivor count [5]: 6 of 6
- survivor count (dose: 12.5 mg/kg/injection, schedule: Q01DX009 (ip), vehicle: saline with Tween-80): 6 of 6
- T/C (dose: 16.0 mg/kg/injection, schedule: Q02DX005 (ip), vehicle: Klucel (hydroxypropylcellulose) (HPC)): 132 % of control
- T/C [6]: 136 % of control
- survivor count [6]: 6 of 6
- survivor count [7]: 5 of 6
- T/C (dose: 25.0 mg/kg/injection, schedule: Q04DX003 (ip), vehicle: saline with Tween-80): 141 % of control
- survivor count (dose: 37.5 mg/kg/injection, schedule: Q04DX003 (ip), vehicle: saline with Tween-80): 6 of 6

Structure (SMILES): Oc1c(Cl)c(Cl)c(Cl)c2cccnc12
- survivor count [7]: 1 of 6

Structure (SMILES): Nc1nc(=S)c2[nH]c(N=Nc3ccc(S(N)(=O)=O)cc3)nc2[nH]1
- T/C (dose: 50.0 mg/kg/injection, schedule: Q04DX003 (ip), vehicle: Klucel (hydroxypropylcellulose) (HPC)): 145 % of control [5 of 6 alive]
- T/C (dose: 100.0 mg/kg/injection, schedule: Q04DX003 (ip), vehicle: Klucel (hydroxypropylcellulose) (HPC)): 137 % of control
- survivor count [8]: 3 of 6

Structure (SMILES): CCCCCCCCCCCC[N+](C)(C)CCCCCC[N+](C)(C)CCCCCCCCCCCC
- survivor count [9]: 0 of 6
- survivor count [10]: 0 of 6
- survivor count [11]: 0 of 6

Structure (SMILES): Clc1nc2n[nH]nc2nc1Cl
- survivor count [1]: 6 of 6

Structure (SMILES): O=C1CCCCC1Oc1ccccc1 (stereo unspecified)
- survivor count [3]: 6 of 6

Structure (SMILES): CC(=O)CC(C)=O.CC(=O)CC(C)=O.[NH-]C1CCCCC1.[NH-]C1CCCCC1.[Ni+2]
- T/C (dose: 75.0 mg/kg/injection, schedule: Q04DX003 (ip), vehicle: saline with Tween-80): 131 % of control [5 of 6 alive]
- T/C (dose: 75.0 mg/kg/injection, schedule: Q04DX003 (ip), vehicle: saline): 129 % of control

Structure (SMILES): O/N=C\c1ccccc1
- survivor count (dose: 150.0 mg/kg/injection, schedule: Q01DX009 (ip), vehicle: Klucel (hydroxypropylcellulose) (HPC)): 3 of 6
- survivor count (dose: 225.0 mg/kg/injection, schedule: Q01DX009 (ip), vehicle: Klucel (hydroxypropylcellulose) (HPC)): 6 of 6
- survivor count (dose: 300.0 mg/kg/injection, schedule: Q04DX003 (ip), vehicle: saline with Tween-80): 4 of 6

Structure (SMILES): O=c1[nH]cc[nH]1
- T/C (dose: 264.0 mg/kg/injection, schedule: Q01DX009 (ip), vehicle: saline): 140 % of control
- T/C [12]: 125 and 133 % of control [5 of 6 alive]

Structure (SMILES): COc1ccc(CNCC(OC)OC)cc1O
- survivor count (dose: 400.0 mg/kg/injection, schedule: Q01DX001 (ip), vehicle: saline with Tween-80): 2 of 6

Structure (SMILES): CC(=O)Nc1ccc(S(=O)(=O)Nc2ccc([N+](=O)[O-])cc2)cc1
- survivor count (dose: 25.0 mg/kg/injection, schedule: Q01DX009 (ip), vehicle: water): 6 of 6
- T/C (dose: 50.0 mg/kg/injection, schedule: Q01DX009 (ip), vehicle: saline with Tween-80): 126 % of control
- survivor count (dose: 100.0 mg/kg/injection, schedule: Q01DX009 (ip), vehicle: water): 5 of 6

Structure (SMILES): O=[N+]([O-])c1ccc2c(N=Nc3c(O)ccc4ccccc34)c(O)cc(S(=O)(=O)O)c2c1
- T/C [2]: 127 % of control

Structure (SMILES): COC(OC)C1(O)CC(C(C)C)OC(=O)N1 (stereo unspecified)
- T/C [13]: 132 % of control

Structure (SMILES): Oc1ccc(I)c2cccnc12
- survivor count (dose: 125.0 mg/kg/injection, schedule: Q01DX010 (ip), vehicle: carboxymethylcellulose (CMC)): 6 of 6

Structure (SMILES): O=C(Cn1cc(F)c(=O)[nH]c1=O)N1CCC2(CC1)SSC1(CCN(C(=O)Cn3cc(F)c(=O)[nH]c3=O)CC1)S2
- survivor count [12]: 3 of 6

Structure (SMILES): CCOC(=O)c1cc(OC(C)=O)c2c(ccc3ccccc32)c1C
- survivor count [8]: 6 of 6

Structure (SMILES): COc1ccccc1/C=C(/C)[N+](=O)[O-]
- T/C (dose: 22.0 mg/kg/injection, schedule: Q01DX010 (ip), vehicle: carboxymethylcellulose (CMC)): 145 % of control
- T/C (dose: 50.0 mg/kg/injection, schedule: Q01DX010 (ip), vehicle: carboxymethylcellulose (CMC)): 135 % of control

Structure (SMILES): CCCCNC(C)(C)C(SS)c1cccs1 (stereo unspecified)
- survivor count (dose: 400.0 mg/kg/injection, schedule: Q04DX003 (ip), vehicle: other): 5 of 6

Structure (SMILES): CN1CCCC1c1cccnc1 (stereo unspecified)
- survivor count [1]: 2 of 6

Structure (SMILES): CC(=O)Nc1nncs1
- survivor count (dose: 400.0 mg/kg/injection, schedule: Q01DX009 (ip), vehicle: saline sonified): 3 of 6

Structure (SMILES): CC(=O)CC(C)=O.CC(=O)CC(C)=O.CC(=O)CC(C)=O.[In]
- survivor count [9]: 5 of 6
- survivor count [10]: 3 of 6
- survivor count [11]: 0 of 6
- survivor count (dose: 400.0 mg/kg/injection, schedule: Q04DX003 (ip), vehicle: saline): 0 of 6

Structure (SMILES): COc1cc(C)c(Cl)c(C)c1C#CC(=O)O
- survivor count (dose: 400.0 mg/kg/injection, schedule: Q01DX001 (ip), vehicle: Klucel (hydroxypropylcellulose) (HPC)): 1 of 6

Structure (SMILES): Nc1nc(N)c2c(ccc3nccc32)[nH]1
- survivor count (dose: 50.0 mg/kg/injection, schedule: Q01DX005 (ip), vehicle: saline with Tween-80): 1 of 5
- survivor count [4]: 0 of 5
- survivor count (dose: 200.0 mg/kg/injection, schedule: Q01DX005 (ip), vehicle: saline with Tween-80): 0 of 5

Structure (SMILES): O=C(C[N+]12CN3CN(CN(C3)C1)C2)c1ccc(Cl)cc1
- T/C (dose: 100.0 mg/kg/injection, schedule: Q04DX003 (ip), vehicle: saline sonified): 127 % of control
- T/C (dose: 100.0 mg/kg/injection, schedule: Q04DX003 (ip), vehicle: saline): 130 % of control
- T/C (dose: 150.0 mg/kg/injection, schedule: Q04DX003 (ip), vehicle: saline sonified): 145 % of control
- T/C [13]: 135 % of control
